Measurements reported in article PMC2671458.
These are yes or no findings as the source states them, for the method shown. In cells and extracts the contact can be indirect. Some binding calls cover weakened binding; strength is not graded here. Blank lines part the entries; values can stand above or below the binder they belong to.

Columns and labels:
[1] = molecular target: T1, P-selectin glycoprotein ligand 1 (human (endogenous in primary neutrophils)) (UniProt Q14242); test: co-IP; lysates of primary human neutrophils, resting or stimulated with 1 nM fNLPNTL for 10 min; lysis buffer 0.5% NP-40, 50 mM NaCl, 50 mM Tris, pH 8; IP with murine anti-PSGL-1 antibody or control murine IgG; blot probed for PSGL-1 and flotillin-2
T1 sequence: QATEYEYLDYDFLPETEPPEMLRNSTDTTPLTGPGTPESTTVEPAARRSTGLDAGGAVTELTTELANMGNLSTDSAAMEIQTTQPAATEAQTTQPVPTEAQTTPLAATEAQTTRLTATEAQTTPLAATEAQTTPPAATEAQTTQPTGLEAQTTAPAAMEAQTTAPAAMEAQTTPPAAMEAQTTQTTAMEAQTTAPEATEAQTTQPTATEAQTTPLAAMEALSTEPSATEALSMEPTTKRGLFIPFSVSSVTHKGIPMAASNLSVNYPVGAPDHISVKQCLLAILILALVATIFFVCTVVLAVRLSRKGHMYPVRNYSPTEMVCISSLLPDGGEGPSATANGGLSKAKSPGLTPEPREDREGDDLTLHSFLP

[2] = molecular target: T1, P-selectin glycoprotein ligand 1 (human (endogenous in primary neutrophils)); test: co-IP; data not shown (n = 2): IP of primary human neutrophil lysates with murine anti-PSGL-1 antibody; blot probed with a murine anti-flotillin-1 antibody
[3] = molecular target: T2, flotillin-2 (human (endogenous in primary neutrophils)) (UniProt Q14254); test: co-IP; lysates of primary human neutrophils, resting or stimulated with 1 nM fNLPNTL for 5 min; lysis buffer 0.5% NP-40, 50 mM NaCl, 50 mM Tris, pH 8; IP with rabbit anti-flotillin-2 antibody and protein A or G beads; blot probed for flotillin-1 and flotillin-2
T2 sequence: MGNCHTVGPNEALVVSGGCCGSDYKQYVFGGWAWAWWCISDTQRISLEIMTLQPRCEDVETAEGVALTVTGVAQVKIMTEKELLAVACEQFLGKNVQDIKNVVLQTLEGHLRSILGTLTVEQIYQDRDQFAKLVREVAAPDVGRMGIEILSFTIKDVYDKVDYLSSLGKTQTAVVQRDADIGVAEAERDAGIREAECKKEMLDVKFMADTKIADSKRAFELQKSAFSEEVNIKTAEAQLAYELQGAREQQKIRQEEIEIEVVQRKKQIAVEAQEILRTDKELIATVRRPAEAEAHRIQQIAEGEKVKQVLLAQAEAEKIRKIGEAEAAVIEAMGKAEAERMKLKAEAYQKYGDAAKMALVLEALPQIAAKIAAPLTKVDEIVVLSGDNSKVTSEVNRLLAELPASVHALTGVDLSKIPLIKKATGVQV

binding [1]: binds
B1: flotillin-2 (protein, UniProt Q14254 1-428)
chain: T2 sequence

binding [2]: binds
binding [3]: binds
B2: flotillin-1 (protein, UniProt O75955-1 1-427)
chain: MFFTCGPNEAMVVSGFCRSPPVMVAGGRVFVLPCIQQIQRISLNTLTLNVKSEKVYTRHGVPISVTGIAQVKIQGQNKEMLAAACQMFLGKTEAEIAHIALETLEGHQRAIMAHMTVEEIYKDRQKFSEQVFKVASSDLVNMGISVVSYTLKDIHDDQDYLHSLGKARTAQVQKDARIGEAEAKRDAGIREAKAKQEKVSAQYLSEIEMAKAQRDYELKKAAYDIEVNTRRAQADLAYQLQVAKTKQQIEEQRVQVQVVERAQQVAVQEQEIARREKELEARVRKPAEAERYKLERLAEAEKSQLIMQAEAEAASVRMRGEAEAFAIGARARAEAEQMAKKAEAFQLYQEAAQLDMLLEKLPQVAEEISGPLTSANKITLVSSGSGTMGAAKVTGEVLDILTRLPESVERLTGVSISQVNHKPLRTA
